According to PMC8431560:
These are yes or no findings as the source states them, for the method shown. Binding seen in cells or lysates may run through a third protein. Some results given as binding are weak or reduced against the parent protein; the word gives no strength. Sequences can lack the tags named with a protein.

Protein sequences, listed by entry. Tags and fused reporters are not part of them.
UniProt P35133: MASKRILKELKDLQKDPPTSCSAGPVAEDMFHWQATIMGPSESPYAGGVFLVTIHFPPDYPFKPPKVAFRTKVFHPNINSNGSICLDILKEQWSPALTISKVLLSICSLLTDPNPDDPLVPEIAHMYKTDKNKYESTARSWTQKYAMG
UniProt Q94F47: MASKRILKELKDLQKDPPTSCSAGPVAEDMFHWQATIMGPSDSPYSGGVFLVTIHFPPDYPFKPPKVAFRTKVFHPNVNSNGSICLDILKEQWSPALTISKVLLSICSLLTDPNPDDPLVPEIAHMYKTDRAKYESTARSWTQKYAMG
UniProt Q9SLE4: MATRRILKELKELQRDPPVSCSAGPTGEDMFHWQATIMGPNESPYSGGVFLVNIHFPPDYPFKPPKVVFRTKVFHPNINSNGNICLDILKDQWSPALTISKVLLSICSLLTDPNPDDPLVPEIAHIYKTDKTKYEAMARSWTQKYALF
UniProt Q9FKT3: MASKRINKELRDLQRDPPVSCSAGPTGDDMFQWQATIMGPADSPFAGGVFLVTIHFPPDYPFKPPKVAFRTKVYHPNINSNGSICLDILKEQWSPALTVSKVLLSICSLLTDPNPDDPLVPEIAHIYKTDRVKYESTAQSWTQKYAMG

Each substance was assayed against T1, SAUL1, C-terminally tagged BiFC construct (Arabidopsis thaliana) (UniProt Q9LM76) (assay: split reporter; BiFC (YFP) in Arabidopsis mesophyll protoplasts, confocal microscopy; SAUL1 tagged C-terminally, UBCs tagged N-terminally; n = 100 protoplasts for each UBC).
T1 sequence: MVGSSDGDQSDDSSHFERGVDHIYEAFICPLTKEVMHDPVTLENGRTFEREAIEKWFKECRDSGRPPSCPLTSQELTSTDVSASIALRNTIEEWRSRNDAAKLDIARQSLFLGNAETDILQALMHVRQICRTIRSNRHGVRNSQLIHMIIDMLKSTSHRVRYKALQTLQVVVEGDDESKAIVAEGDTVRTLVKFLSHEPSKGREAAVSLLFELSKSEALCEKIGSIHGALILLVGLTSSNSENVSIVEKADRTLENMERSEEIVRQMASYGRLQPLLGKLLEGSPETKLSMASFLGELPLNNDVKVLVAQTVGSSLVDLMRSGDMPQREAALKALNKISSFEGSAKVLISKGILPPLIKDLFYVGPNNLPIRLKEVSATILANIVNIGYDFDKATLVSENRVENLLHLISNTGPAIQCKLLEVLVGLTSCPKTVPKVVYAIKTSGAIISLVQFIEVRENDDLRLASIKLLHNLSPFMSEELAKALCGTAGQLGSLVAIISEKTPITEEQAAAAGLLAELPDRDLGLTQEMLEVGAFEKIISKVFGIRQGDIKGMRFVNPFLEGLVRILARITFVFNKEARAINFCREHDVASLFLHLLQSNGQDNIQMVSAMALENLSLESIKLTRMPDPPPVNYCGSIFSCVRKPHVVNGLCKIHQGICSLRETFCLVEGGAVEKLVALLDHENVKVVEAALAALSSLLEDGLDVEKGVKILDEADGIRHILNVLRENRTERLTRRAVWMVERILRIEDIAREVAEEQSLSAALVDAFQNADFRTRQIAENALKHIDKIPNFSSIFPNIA

binding, binds:
UBC10, N-terminally tagged BiFC construct (from UniProt P35133 1-148) (enzyme)
UBC28, N-terminally tagged BiFC construct (from UniProt Q94F47 1-148) (enzyme)
UBC29, N-terminally tagged BiFC construct (from UniProt Q9SLE4 1-148) (enzyme)
UBC30, N-terminally tagged BiFC construct (from UniProt Q9FKT3 1-148) (enzyme)
